Measurements reported in PMC8415707 (Frontiers in Pharmacology, 2021).
Results are given in words; binding and its absence hold for the method and conditions named. Some binding calls cover weakened binding; strength is not graded here.

Protein sequences, listed by entry. Tags and fused reporters are not part of them. Residues count along the entry.
UniProt P02769, residues 25-607: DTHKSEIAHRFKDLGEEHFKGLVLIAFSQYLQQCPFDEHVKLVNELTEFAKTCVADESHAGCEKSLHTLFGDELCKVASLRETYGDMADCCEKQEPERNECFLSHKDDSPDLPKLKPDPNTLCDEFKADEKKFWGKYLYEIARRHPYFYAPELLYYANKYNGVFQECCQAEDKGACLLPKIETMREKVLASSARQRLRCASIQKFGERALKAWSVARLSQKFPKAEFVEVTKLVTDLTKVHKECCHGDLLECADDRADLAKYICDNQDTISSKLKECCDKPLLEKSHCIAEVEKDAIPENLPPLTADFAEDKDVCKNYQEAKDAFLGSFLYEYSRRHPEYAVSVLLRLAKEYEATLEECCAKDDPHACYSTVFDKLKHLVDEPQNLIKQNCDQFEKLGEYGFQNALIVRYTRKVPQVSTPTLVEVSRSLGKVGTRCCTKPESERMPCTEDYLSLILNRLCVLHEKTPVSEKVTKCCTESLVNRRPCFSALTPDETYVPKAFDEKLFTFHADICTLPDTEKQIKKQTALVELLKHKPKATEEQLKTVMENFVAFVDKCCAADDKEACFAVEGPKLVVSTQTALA
UniProt P20231, residues 31-275: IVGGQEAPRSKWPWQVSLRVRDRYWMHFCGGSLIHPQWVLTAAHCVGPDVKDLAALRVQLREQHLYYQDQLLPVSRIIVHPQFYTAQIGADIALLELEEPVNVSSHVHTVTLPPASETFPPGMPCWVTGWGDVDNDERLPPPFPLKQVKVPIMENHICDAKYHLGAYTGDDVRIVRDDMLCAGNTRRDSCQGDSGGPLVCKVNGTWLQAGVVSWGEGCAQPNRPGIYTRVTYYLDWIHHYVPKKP

Biological target: T1, FM-CATH (F. multistriata)
T1 sequence (peptide): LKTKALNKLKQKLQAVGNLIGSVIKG
Assay: SPR; SPRi (PlexArray HT A100, bare gold chip); FM-CATH (2 mM) and BSA in PBS spotted on the chip, blocked with 1 M ethanolamine pH 8.5; different concentrations of proteases flowed over at 2 uL/s; regeneration with 0.5% H3PO4; both purified

Substance | binding
BSA (from UniProt P02769 25-607) | no binding
β-tryptase (from UniProt P20231 31-275) (enzyme) | binds
